Experimental findings from article PMC4150796 are described below.

Protein sequences, listed by entry. Tags and fused reporters are not part of them. Lines headed by an entry give the natural chain unless they say otherwise; changes in a name come on top.
UniProt Q13105: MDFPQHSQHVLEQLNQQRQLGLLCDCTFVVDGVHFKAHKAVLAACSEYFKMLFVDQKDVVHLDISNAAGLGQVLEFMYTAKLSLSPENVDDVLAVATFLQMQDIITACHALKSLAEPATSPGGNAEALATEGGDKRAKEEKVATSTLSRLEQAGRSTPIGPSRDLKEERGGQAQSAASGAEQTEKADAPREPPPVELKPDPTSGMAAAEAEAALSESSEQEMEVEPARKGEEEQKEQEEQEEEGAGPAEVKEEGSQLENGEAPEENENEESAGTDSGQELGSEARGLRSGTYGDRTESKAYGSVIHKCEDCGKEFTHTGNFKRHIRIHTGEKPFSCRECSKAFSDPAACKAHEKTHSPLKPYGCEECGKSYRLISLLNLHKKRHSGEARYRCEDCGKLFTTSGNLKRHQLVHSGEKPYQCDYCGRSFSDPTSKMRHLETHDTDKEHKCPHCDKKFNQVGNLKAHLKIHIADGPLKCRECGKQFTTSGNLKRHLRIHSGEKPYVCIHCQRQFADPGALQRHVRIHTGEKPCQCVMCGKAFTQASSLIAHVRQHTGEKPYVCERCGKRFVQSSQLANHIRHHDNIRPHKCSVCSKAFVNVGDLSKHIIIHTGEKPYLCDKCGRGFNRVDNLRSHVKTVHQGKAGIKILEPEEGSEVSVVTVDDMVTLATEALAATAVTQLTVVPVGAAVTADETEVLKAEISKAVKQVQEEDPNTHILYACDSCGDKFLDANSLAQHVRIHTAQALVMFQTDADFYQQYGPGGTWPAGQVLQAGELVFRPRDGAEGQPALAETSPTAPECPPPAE

The target of this assay is MIZ-1 POZ domain of the GST-pulldown experiments (human) (UniProt Q13105). Description: pull-down; GST or GST fusion on glutathione-Sepharose 4B beads incubated with 35S-labeled in vitro translated protein; 10 mM Tris-HCl pH 8, 250 mM NaCl, 0.1% NP40, 2 mg/ml BSA, 4 h at 4°C; autoradiography; only the target purified.

These are yes or no findings as the source states them, for the method shown. Binding seen in cells or lysates may run through a third protein. Binding calls can cover weak binding; strength is not graded here.

For the substance “35S-labeled EBNA3A, in vitro translated (from UniProt P12977 1-944)”, the binding entry is given as “binds”.
In the case of “EBNA3A 1–172 (deletion mutant) (from UniProt P12977 1-172) (domain or fragment)” it was “binds”.
